Source: article PMC10018365, “Cryo-EM structure of the fully assembled Elongator complex” (Nucleic Acids Research, 2023)
Results are given in words; binding and its absence hold for the method and conditions named. Some entries that bind do so weakly or less than the wild type.

The chains behind the UniProt entries cited, without tags or fusion partners. Where a name states a change or a piece, a line headed by the entry shows the natural chain unless it says otherwise.
UniProt O95163: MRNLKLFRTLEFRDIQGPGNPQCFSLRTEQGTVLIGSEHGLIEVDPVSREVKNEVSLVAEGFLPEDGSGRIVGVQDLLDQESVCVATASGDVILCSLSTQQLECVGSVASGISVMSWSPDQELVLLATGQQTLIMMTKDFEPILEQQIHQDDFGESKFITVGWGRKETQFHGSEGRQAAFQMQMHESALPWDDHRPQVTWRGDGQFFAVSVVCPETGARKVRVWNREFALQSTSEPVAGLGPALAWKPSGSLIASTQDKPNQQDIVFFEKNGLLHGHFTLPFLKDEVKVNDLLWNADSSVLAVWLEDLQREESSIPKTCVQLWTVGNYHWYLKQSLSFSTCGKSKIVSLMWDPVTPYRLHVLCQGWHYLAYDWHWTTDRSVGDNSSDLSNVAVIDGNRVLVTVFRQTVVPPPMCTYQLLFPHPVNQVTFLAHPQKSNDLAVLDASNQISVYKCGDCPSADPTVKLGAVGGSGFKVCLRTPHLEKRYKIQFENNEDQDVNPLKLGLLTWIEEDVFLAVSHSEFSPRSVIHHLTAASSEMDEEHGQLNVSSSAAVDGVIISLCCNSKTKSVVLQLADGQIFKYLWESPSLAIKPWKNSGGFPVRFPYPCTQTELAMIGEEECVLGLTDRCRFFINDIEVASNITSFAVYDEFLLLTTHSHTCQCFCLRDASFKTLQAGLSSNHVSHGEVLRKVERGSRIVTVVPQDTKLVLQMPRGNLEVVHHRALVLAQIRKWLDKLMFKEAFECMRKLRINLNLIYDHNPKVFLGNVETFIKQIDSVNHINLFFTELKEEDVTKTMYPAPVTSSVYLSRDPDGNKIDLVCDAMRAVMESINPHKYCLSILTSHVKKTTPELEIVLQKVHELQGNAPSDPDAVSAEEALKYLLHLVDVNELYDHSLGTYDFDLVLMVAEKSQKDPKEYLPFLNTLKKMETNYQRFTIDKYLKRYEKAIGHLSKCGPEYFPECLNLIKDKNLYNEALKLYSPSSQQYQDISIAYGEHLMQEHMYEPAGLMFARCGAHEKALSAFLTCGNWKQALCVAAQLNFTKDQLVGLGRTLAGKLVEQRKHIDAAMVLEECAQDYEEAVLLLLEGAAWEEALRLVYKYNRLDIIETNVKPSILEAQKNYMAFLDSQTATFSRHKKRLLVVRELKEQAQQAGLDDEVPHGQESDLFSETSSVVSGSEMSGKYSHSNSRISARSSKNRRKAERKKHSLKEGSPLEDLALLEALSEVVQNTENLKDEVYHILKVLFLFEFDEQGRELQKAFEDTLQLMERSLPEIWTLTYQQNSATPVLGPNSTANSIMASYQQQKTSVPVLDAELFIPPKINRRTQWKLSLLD
UniProt Q6IA86: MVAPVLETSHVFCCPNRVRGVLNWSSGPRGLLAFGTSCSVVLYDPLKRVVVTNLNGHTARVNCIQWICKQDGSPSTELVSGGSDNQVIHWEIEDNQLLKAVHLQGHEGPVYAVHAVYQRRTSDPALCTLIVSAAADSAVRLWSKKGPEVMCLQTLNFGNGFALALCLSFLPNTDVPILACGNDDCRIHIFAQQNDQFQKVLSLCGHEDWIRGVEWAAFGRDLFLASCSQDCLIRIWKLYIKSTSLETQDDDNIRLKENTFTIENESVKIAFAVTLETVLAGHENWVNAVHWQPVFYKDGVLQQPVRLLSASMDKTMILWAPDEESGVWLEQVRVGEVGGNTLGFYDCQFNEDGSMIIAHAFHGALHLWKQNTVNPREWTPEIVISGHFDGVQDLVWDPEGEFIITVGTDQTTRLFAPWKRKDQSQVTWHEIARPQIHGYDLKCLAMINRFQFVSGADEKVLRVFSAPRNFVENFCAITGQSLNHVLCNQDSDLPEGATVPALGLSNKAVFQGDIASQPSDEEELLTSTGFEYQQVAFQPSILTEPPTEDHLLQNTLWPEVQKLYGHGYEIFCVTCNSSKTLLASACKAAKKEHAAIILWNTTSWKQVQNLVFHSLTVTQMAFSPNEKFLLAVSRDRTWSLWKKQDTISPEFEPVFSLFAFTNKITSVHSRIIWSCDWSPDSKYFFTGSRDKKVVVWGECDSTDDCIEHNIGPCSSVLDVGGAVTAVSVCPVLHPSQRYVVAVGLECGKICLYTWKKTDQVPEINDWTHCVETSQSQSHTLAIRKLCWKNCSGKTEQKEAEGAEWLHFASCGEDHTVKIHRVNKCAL

Legend:
[1] = target: T1, Mus musculus Elp3 (Mus musculus) (UniProt Q9CZX0); assay: cryo-EM structure; MmElp123 without tRNA (4.0 Å) and with in vitro transcribed mouse tRNA Arg UCU (4.35 Å); both purified
T1 sequence: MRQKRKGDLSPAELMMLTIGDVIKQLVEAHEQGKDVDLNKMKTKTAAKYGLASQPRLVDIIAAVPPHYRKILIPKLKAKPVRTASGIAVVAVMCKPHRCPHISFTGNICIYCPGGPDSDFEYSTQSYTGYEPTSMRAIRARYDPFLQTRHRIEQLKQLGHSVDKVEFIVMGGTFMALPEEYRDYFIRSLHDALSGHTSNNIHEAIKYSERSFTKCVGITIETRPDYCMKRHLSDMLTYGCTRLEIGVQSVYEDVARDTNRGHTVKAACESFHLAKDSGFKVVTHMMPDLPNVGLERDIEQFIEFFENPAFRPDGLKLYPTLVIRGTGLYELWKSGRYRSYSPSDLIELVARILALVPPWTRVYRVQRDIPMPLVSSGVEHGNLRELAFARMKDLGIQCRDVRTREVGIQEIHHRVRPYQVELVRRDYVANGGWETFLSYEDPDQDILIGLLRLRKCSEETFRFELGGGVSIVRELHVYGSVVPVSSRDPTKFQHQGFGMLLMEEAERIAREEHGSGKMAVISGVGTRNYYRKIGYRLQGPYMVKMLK

[2] = target: T1, Mus musculus Elp3 (Mus musculus); assay: co-purification (affinity chromatography and SEC); mouse and human subcomplexes co-expressed in insect cells; Elp123 by Twin-Strep-tag on Elp3 (StrepTrap), heparin, Superose 6; Elp456 by protein A on Elp6 (IgG Sepharose, TEV elution), Superose 6
[3] = target: T2, Mus musculus Elp1 (Mus musculus) (UniProt Q7TT37); assay: cryo-EM structure; MmElp123 without tRNA (4.0 Å) and with in vitro transcribed mouse tRNA Arg UCU (4.35 Å); both purified
T2 sequence: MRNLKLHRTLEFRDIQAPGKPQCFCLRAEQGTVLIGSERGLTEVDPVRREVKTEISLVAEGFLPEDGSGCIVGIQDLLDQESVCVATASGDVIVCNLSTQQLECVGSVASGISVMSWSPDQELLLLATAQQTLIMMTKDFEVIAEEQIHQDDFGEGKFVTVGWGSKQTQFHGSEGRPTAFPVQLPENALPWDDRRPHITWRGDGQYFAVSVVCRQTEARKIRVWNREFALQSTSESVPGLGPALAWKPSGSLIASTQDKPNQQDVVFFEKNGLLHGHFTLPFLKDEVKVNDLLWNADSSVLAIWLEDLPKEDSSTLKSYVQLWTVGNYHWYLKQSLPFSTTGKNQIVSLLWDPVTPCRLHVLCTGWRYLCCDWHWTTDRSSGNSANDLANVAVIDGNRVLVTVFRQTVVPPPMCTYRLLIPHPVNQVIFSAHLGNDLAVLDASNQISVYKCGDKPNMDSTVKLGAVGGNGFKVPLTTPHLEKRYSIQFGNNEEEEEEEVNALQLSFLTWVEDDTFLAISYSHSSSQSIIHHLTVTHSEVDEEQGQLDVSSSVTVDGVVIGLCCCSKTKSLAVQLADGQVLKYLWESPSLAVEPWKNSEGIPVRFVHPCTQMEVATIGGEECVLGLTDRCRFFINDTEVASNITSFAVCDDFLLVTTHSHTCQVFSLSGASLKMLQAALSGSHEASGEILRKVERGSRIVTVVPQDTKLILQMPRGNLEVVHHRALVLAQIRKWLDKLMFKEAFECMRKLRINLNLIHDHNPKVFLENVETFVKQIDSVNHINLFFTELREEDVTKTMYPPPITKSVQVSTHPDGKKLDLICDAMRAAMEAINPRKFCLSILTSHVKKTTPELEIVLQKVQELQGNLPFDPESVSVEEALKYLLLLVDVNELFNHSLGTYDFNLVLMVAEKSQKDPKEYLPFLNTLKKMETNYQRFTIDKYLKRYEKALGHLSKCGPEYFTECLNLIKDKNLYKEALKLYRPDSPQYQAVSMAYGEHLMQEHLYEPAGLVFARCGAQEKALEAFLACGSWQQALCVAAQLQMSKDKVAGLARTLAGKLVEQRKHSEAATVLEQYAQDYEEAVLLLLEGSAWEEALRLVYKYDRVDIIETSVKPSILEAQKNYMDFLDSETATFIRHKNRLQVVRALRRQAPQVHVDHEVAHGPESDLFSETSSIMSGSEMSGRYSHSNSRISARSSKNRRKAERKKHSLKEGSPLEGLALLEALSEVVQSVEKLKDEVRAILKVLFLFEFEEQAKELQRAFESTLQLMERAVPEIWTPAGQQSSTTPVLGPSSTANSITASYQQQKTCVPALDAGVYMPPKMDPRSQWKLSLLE

[4] = target: Homo sapiens Elp123 subcomplex, wild type (Homo sapiens) (UniProt O95163+Q6IA86+Q9H9T3); assay: pull-down; 10 μg bait, 20 μg prey; Elp123 on StrepTactin Sepharose by Twin-Strep-tagged Elp3, or Elp456 on anti-DYKDDDDK resin by FLAG-tagged Elp6; 30-60 min at 4°C; washes in 20 mM HEPES pH 7.5, 100 mM NaCl, 1 mM DTT, 0.05% Tween 20; SDS-PAGE with Coomassie or silver stain; also with ATP and bulk tRNA; both purified

B1: Mus musculus Elp2 (protein, UniProt Q91WG4 1-831)
chain: MVSSVLEVSHVFCCPNRVRGALSWNTGPGGLLAFGTSCSVVLYDPQKKVVITNLNGHTARVNCLQWIRTEDGSPSNELVSGGSDNRVIHWELENNQVLKSVRLQGHEGPVCAVHAIYQSGPSEGEQHALIASAASDSTVRIWSKKGSEVKYLQTLSFRDGFVLSVCLAILPGTNVPVLACGDDDCRIHLYIQQDDQFQKALSLCGHEDWIRGVEWATFGRDLFLASCSQDCLIRIWRLYMKPASFETKDGSLRLKENTFTIKDGGVRTTVAVTLETVLAGHENWVNAVHWQPSFYKDGVLQQPVRLLSASMDKTMILWAPDEESGVWLEQVRVGEVGGNTLGFYDCQFGENGTMIIAHAFHGALHLWKQSTVNPRQWAPEIVISGHFDGVQDLMWDPEGEFIITTSTDQTTRLFAPWKKKDQKDRSQVTWHEIARPQIHGYNIKCLAMIDRFQFVSGADEKVLRVFSAPRNFVENFSVISRQSLSHMLCDDQDLPEGATVPALGLSNKALFQGDIASQPFEEDELISPAFGSPQVTFQPAVLNEPPTEDHLLQNTLWPEIQKLYGHGYEIVCVACNNSKTLLASACKASQKEHAAIILWSTASWKQVQSLAFHTLTVTQMTFSPDDKFLLAVSRDRTWSLWKRQDATSSEFDPFFSLFAFTNKITSVHSRIIWSCDWSPDNKYFFTGSRDKKVVVWGECKSSHNPMEHPIRPCSSILDVGSSVTAVSVCPVLNPAQRYIVAIGLESGKICIYSWNKTNQEINDWTSCVETNPSQSHSLGIRRLCWKSCSDDDDDDDDDDTEQSEEGPEWLHFASCGEDHTVKIYRVNRRAL
- binding [1]: binds
- binding [2]: binds

B2: Mus musculus Elp3 (enzyme, UniProt Q9CZX0 1-547)
chain: MRQKRKGDLSPAELMMLTIGDVIKQLVEAHEQGKDVDLNKMKTKTAAKYGLASQPRLVDIIAAVPPHYRKILIPKLKAKPVRTASGIAVVAVMCKPHRCPHISFTGNICIYCPGGPDSDFEYSTQSYTGYEPTSMRAIRARYDPFLQTRHRIEQLKQLGHSVDKVEFIVMGGTFMALPEEYRDYFIRSLHDALSGHTSNNIHEAIKYSERSFTKCVGITIETRPDYCMKRHLSDMLTYGCTRLEIGVQSVYEDVARDTNRGHTVKAACESFHLAKDSGFKVVTHMMPDLPNVGLERDIEQFIEFFENPAFRPDGLKLYPTLVIRGTGLYELWKSGRYRSYSPSDLIELVARILALVPPWTRVYRVQRDIPMPLVSSGVEHGNLRELAFARMKDLGIQCRDVRTREVGIQEIHHRVRPYQVELVRRDYVANGGWETFLSYEDPDQDILIGLLRLRKCSEETFRFELGGGVSIVRELHVYGSVVPVSSRDPTKFQHQGFGMLLMEEAERIAREEHGSGKMAVISGVGTRNYYRKIGYRLQGPYMVKMLK
- binding [3]: binds

B3: Homo sapiens Elp456 subcomplex with Elp5 Δ1–9 (complex, UniProt Q96EB1 1-424; Q8TE02 10-300; Q0PNE2 1-266)
chain 1: MAAVATCGSVAASTGSAVATASKSNVTSFQRRGPRASVTNDSGPRLVSIAGTRPSVRNGQLLVSTGLPALDQLLGGGLAVGTVLLIEEDKYNIYSPLLFKYFLAEGIVNGHTLLVASAKEDPANILQELPAPLLDDKCKKEFDEDVYNHKTPESNIKMKIAWRYQLLPKMEIGPVSSSRFGHYYDASKRMPQELIEASNWHGFFLPEKISSTLKVEPCSLTPGYTKLLQFIQNIIYEEGFDGSNPQKKQRNILRIGIQNLGSPLWGDDICCAENGGNSHSLTKFLYVLRGLLRTSLSACIITMPTHLIQNKAIIARVTTLSDVVVGLESFIGSERETNPLYKDYHGLIHIRQIPRLNNLICDESDVKDLAFKLKRKLFTIERLHLPPDLSDTVSRSSKMDLAESAKRLGPGCGMMAGGKKHLDF
chain 2: GLVLLRDSVEWEGRSLLKALVKKSALCGEQVHILGCEVSEEEFREGFDSDINNRLVYHDFFRDPLNWSKTEEAFPGGPLGALRAMCKRTDPVPVTIALDSLSWLLLRLPCTTLCQVLHAVSHQDSCPGDSSSVGKVSVLGLLHEELHGPGPVGALSSLAQTEVTLGGTMGQASAHILCRRPRQRPTDQTQWFSILPDFSLDLQEGPSVESQPYSDPHIPPVDPTTHLTFNLHLSKKEREARDSLILPFQFSSEKQQALLRPRPGQATSHIFYEPDAYDDLDQEDPDDDLDI
chain 3: MFVELNNLLNTTPDRAEQGKLTLLCDAKTDGSFLVHHFLSFYLKANCKVCFVALIQSFSHYSIVGQKLGVSLTMARERGQLVFLEGLKSAVDVVFQAQKEPHPLQFLREANAGNLKPLFEFVREALKPVDSGEARWTYPVLLVDDLSVLLSLGMGAVAVLDFIHYCRATVCWELKGNMVVLVHDSGDAEDEENDILLNGLSHQSHLILRAEGLATGFCRDVHGQLRILWRRPSQPAVHRDQSFTYQYKIQDKSVSFFAKGMSPAVL
- binding [4]: binds
